Library screen at single concentrations

Protein sequences, listed by entry. Tags and fused reporters are not part of them. Residues count along the entry.
UniProt P9WFT3, whole entry: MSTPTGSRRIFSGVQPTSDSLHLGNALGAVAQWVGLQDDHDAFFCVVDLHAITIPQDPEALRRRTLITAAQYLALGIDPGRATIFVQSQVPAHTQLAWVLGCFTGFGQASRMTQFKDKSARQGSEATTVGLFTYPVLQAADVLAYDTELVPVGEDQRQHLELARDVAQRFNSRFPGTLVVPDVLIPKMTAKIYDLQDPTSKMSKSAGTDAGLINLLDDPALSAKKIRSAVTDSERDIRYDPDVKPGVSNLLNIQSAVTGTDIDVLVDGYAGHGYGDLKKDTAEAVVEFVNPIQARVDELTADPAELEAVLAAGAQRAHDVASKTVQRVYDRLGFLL
UniProt P9WPC5, whole entry: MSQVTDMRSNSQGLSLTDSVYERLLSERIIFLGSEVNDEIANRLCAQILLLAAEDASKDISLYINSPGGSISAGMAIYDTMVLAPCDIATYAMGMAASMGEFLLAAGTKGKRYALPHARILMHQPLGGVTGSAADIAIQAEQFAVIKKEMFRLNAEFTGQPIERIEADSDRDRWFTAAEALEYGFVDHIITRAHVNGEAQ
UniProt P9WPC3, whole entry partner: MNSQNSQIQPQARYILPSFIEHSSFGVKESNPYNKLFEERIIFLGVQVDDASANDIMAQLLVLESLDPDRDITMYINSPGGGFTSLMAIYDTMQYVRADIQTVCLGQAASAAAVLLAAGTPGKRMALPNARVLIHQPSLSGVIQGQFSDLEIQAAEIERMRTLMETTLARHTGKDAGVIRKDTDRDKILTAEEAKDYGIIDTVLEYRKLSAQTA
UniProt Q4DA54, 1-478: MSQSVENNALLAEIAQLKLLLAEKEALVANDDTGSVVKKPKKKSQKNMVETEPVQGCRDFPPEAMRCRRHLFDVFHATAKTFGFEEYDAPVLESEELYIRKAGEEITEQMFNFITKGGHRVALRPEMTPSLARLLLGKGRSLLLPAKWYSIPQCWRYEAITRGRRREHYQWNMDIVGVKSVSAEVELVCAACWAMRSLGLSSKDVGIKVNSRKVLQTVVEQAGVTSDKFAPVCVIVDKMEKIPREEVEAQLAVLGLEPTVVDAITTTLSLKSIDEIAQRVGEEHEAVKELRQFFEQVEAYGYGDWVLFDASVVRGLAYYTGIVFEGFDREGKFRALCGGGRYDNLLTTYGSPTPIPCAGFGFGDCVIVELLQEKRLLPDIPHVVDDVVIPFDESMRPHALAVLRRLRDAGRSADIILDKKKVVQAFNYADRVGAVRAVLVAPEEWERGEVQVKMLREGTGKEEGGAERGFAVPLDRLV

Measurements from “University of Dundee, Small-Polar-MMV Screening Library” (2021), ChEMBL document CHEMBL3988442.

MtTrpRS: 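Tryptophan-tRNA ligase, Mycobacterium tuberculosis (UniProt P9WFT3). Enzyme assay of tryptophanyl-tRNA synthetase; the read-out is not stated. Tested at 10 µM. Direction is not recorded; retested compounds ran higher, which suggests that high means inhibition. Of about 65,000 compounds tested this way, about 64 (0.098%) reached 50% or more in at least one test.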
ClpP1P2: 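ClpP1P2, Mycobacterium tuberculosis (UniProt P9WPC5 and UniProt P9WPC3). Protease assay of ClpP1P2, read by the AMC dye that it sets free. Concentration: 50 µM. Higher reads as stronger inhibition, judged from the few compounds that gave an IC50. Most other retested compounds had strongly negative values. Of about 69,000 compounds tested this way, about 10 (0.015%) reached 50% or more in at least one test.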
TcHisRS: 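Histidine-tRNA ligase, Trypanosoma cruzi CL Brener (UniProt Q4DA54). Enzyme assay of histidyl-tRNA synthetase; the read-out is not stated. Concentration: 30 µM. The record gives no direction; compounds that gave an IC50 in retests scored well above the rest, so higher reads as stronger inhibition. About 69,000 compounds were tested under these conditions; 0.045% (about 31) showed 50% or more at least once.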

Each number is a percent effect as filed. How 0% and 100% were set is not recorded. Most values in the screen are low, and negative values occur. The compounds are a random part of those screened.

{"smiles": "CN1[C@H]2CC[C@@H]1CN(c1cc(Sc3cccs3)nc(N)n1)CC2", "MtTrpRS": -1.708, "ClpP1P2": -6.051, "TcHisRS": 6.438}
{"smiles": "COc1ccccc1CNC1(CCO)CCOCC1", "MtTrpRS": 16.82, "ClpP1P2": 2.648, "TcHisRS": 1.299}
{"smiles": "CC(C)CNC(=O)c1cccc(CN2CCc3c(ncn3C)C2)c1", "MtTrpRS": 0.936, "ClpP1P2": -27.85, "TcHisRS": 1.176}
{"smiles": "c1ccc2sc(N3CCCC4(CCOC4)C3)nc2c1", "stereo": "centres unmarked", "MtTrpRS": -2.478, "ClpP1P2": 1.808, "TcHisRS": 0.5291}
{"smiles": "CC(=O)N1CCC(c2cc(C(F)(F)F)n3ccnc3n2)CC1", "MtTrpRS": -3.917, "ClpP1P2": -54.44, "TcHisRS": 5.376}
{"smiles": "CN(CCc1cnn(C)c1)C(=O)C1COc2ccccc2C1", "stereo": "centres unmarked", "MtTrpRS": -3.722, "ClpP1P2": 0.778, "TcHisRS": 3.665}
{"smiles": "Cc1nc(N2CCCC2)ncc1-c1cc(O)n2ncnc2n1", "MtTrpRS": 3.238, "ClpP1P2": -6.922, "TcHisRS": 2.609}
{"smiles": "O=C(COc1cccc2c1CCC2=O)NCc1ccccc1Cl", "MtTrpRS": 2.824, "ClpP1P2": 4.464, "TcHisRS": 3.333}
{"smiles": "CCC1(CO)CCCN(Cc2nccn2Cc2ccccc2)C1", "stereo": "centres unmarked", "MtTrpRS": 0.7916, "ClpP1P2": -1.797, "TcHisRS": 3.488}
{"smiles": "CNC(=O)[C@@]12CCC3(CCN(C(C)=O)CC3)[C@@H]1CN(S(C)(=O)=O)C2", "MtTrpRS": 1.341, "ClpP1P2": -13.63, "TcHisRS": 8.475}
{"smiles": "CNS(=O)(=O)Cc1ccc(CNc2ccc(C#N)cn2)cc1", "MtTrpRS": -0.8258, "ClpP1P2": 1.584, "TcHisRS": 0.5128}
{"smiles": "CN(CCc1nccs1)C(=O)C1(C#N)CCCCC1", "MtTrpRS": -3.614, "ClpP1P2": -15.63, "TcHisRS": 4.867}
{"smiles": "CCC[C@@H]1CN(Cc2ccccc2-c2ccco2)C[C@H]1NC(C)=O", "MtTrpRS": 3.86, "ClpP1P2": -5.331, "TcHisRS": 11.06}
{"smiles": "Cc1nc(CC(=O)N2CCN(CCOc3ccccc3)CC2)cs1", "MtTrpRS": -1.09, "ClpP1P2": -4.734, "TcHisRS": -1.587}
{"smiles": "Cc1csc(N2CCN(Cc3cnc4c(c3)c(C)nn4C)CC2)n1", "MtTrpRS": 0.5939, "ClpP1P2": -2.078, "TcHisRS": 9.135}
{"smiles": "Cc1ccc(CNC(=O)Cn2c(=O)c3cccnc3n2C)cc1F", "MtTrpRS": 0.2937, "ClpP1P2": -2.19, "TcHisRS": 8}
{"smiles": "COc1ccc(OC)c(C(=O)N(C)Cc2ncc(C)c(OC)c2C)c1", "MtTrpRS": 0.5696, "ClpP1P2": -1.518, "TcHisRS": 2.521}
{"smiles": "CC(CCc1ccccc1)NC(=O)Nc1cnn(CC(N)=O)c1", "stereo": "centres unmarked", "MtTrpRS": -0.2924, "ClpP1P2": 4.286, "TcHisRS": -1.88}
{"smiles": "Cc1noc(C)c1CCC(=O)N1CCN(CCn2cccn2)CC1", "MtTrpRS": 4.49, "ClpP1P2": -10.12, "TcHisRS": -2.479}
{"smiles": "CC(NC(=O)CCCc1nc(C(C)(C)C)no1)c1nnc2n1CCC2", "stereo": "centres unmarked", "MtTrpRS": -4.31, "ClpP1P2": 3.184, "TcHisRS": 3.488}
{"smiles": "CN(C)C(=O)c1cc2ncc(C(=O)NC3CCCC3)cc2n1C", "ClpP1P2": -22.94, "TcHisRS": 11.36}
{"smiles": "COc1ccc(C2CC(=O)c3c(O)cc(O)cc3O2)cc1O", "stereo": "centres unmarked", "MtTrpRS": -2.334, "ClpP1P2": -2.258, "TcHisRS": 0.9901}
{"smiles": "O=C(Cn1ccnc1)N1CCCC(OCc2cccnc2)C1", "stereo": "centres unmarked", "MtTrpRS": -3.422, "ClpP1P2": -0.5633, "TcHisRS": 1.345}
{"smiles": "CCN1CCCC(O)(c2nc(C)c(CCOc3ccccc3F)s2)CC1", "stereo": "centres unmarked", "MtTrpRS": 13.96, "ClpP1P2": -13.04, "TcHisRS": 6.844}
{"smiles": "O=C(C1CCOCC1)N1C[C@H]2CNC[C@H]2C1", "MtTrpRS": 2.326, "ClpP1P2": 7.618, "TcHisRS": 4.854}
{"smiles": "COCCN1CCn2cc(CNC(=O)c3cnn(C)c3)nc2C1", "MtTrpRS": -0.2571, "ClpP1P2": 3.77, "TcHisRS": 6.748}
{"smiles": "CCc1cc(CN(C)Cc2nc(-c3sccc3C)oc2C)on1", "MtTrpRS": -4.77, "ClpP1P2": -14.33, "TcHisRS": 4.469}